According to article PMC8372404 (Frontiers in Neuroscience, 2021):

Biological target: [3H]-LCGA-17 binding site in rat brain membranes (putative α2δ)
Assay: [3H]-LCGA-17 radioligand competition binding assay

Compound | IC50 (competition of [3H]-LCGA-17 binding to rat brain (cortical) membranes, text and Figure 3) [µM] | IC50 (competition of [3H]-LCGA-17 (16 nM) binding, rat brain membranes, Table S1) [µM]
NCCCC(=O)O [GABA, γ-aminobutyric acid] | > 100 | 
O=C(CCCN1CCC2(CC1)C(=O)NCN2c1ccccc1)c1ccc(F)cc1 [Spiperone] |  | > 100
